# Record: PubChem BioAssay AID1259254 (NCATS, 2017)
# Test: 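Finding genes that stop cells copying their DNA twice in one cycle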 (primary screen)
# Cells: human HCT116 colorectal cancer cells
# Knock-down reagent: single siRNA against human genes
# Timing: 3 days
# Detection: 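Nuclei stained with Hoechst and imaged; cell-cycle phase assigned by DNA content; G2 share scaled per plate, non-targeting siRNA 0%, GMNN siRNA 100%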
# Scale: G2 robust z-score and G2 cells, % of GMNN control: higher = more G2 cells, more excess DNA replication; raw share of cells in G2: higher = larger share of cells with G2 DNA content
# Active means: 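An siRNA counts as active if its G2 robust z-score lies at least 5 MADs above the screen median; here such calls match roughly 38% of GMNN control or more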
# The whole screen tested about 59,000 reagents; below is an unselected part. About 1,550 of all reagents (2.6%) count as active. 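G2 share is only a proxy for re-replication; each gene was hit by three separate siRNAs, and active genes were retested.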 Raw values are not corrected between plates. Unmarked entries are inactive. The numbers tell different reagents against one gene apart. No sequences are given here. The record does not give: the amount of reagent.
gene symbol,reagent no.,G2 robust z-score,"G2 cells, % of GMNN control",raw share of cells in G2 (%)
MLXIP,1,0.631,7.41,7.89
MLXIP,2,-0.00718,2.92,5.34
MLXIP,3,0.328,5.28,5.15
RYBP,1,-0.231,1.34,3.97
RYBP,2,3.69,29,18.9
RYBP,3,1.53,13.7,9.08
DSG1,1,3.32,26.3,14.6
DSG1,2,-0.519,-0.687,3.86
DSG1,3,-0.264,1.11,5.36
SLC43A3,1,1.02,10.1,7.3
SLC43A3,2,1.17,11.2,11.2
SLC43A3,3,8.84 (active),65.2,25.8
ERF,1,0.9,9.3,8.8
ERF,2,-0.838,-2.93,2.61
ERF,3,-0.703,-1.98,4.52
ACKR1,1,0.142,3.97,4.48
ACKR1,2,5.11 (active),38.9,19.8
ACKR1,3,-0.585,-1.15,4.11
FCSK,1,1.47,13.3,9.73
FCSK,2,-0.477,-0.386,5.05
FCSK,3,0.972,9.8,6.82
VHLL,1,-0.64,-1.54,5.24
VHLL,2,0.252,4.74,6.81
VHLL,3,2.16,18.1,10.9
YRDC,1,-0.185,1.66,5.13
YRDC,2,0.856,8.99,8.24
YRDC,3,-0.939,-3.64,1.38
EPS15L1,1,-0.271,1.06,4.72
EPS15L1,2,0.669,7.67,8.82
EPS15L1,3,0.607,7.24,6.85
YY2,1,0.252,4.74,4.72
YY2,2,-0.877,-3.2,2.05
YY2,3,7 (active),52.2,21.8
JMJD6,1,0.239,4.65,5.46
JMJD6,2,0.11,3.74,7.87
JMJD6,3,-0.776,-2.49,3.32
RPL21P131,1,0.924,9.47,7.02
RPL21P131,2,0.252,4.74,5.47
RPL21P131,3,3.59,28.2,16.7
RNF113A,1,0.437,6.04,6.51
RNF113A,2,1.68,14.8,9.36
RNF113A,3,-0.825,-2.84,4.4
CYP2W1,1,-0.313,0.764,4.65
CYP2W1,2,-0.41,0.0859,6.47
CYP2W1,3,-0.814,-2.76,3.45
SLC9A4,1,-0.686,-1.86,5.1
SLC9A4,2,2.26,18.9,12.3
SLC9A4,3,-0.848,-3,3.19
AMZ2P1,1,-0.242,1.27,4.06
AMZ2P1,2,-0.673,-1.77,2.37
AMZ2P1,3,0.232,4.6,4.22
RNASE9,1,-0.239,1.29,6.46
RNASE9,2,5.47 (active),41.4,19.4
RNASE9,3,2.84,23,13.9
ATP6V0A2,1,1.75,15.3,12.5
ATP6V0A2,2,-0.0629,2.52,5
ATP6V0A2,3,-0.192,1.61,4.42
NPPA,1,1.04,10.3,6.71
NPPA,2,2.48,20.4,12.9
NPPA,3,-0.491,-0.489,4.55
FCGR1BP,1,0.55,6.84,7.86
FCGR1BP,2,4.47,34.4,15.9
FCGR1BP,3,1.71,15,10.7
WDR70,1,1.76,15.3,10.4
WDR70,2,-0.902,-3.38,2.74
WDR70,3,0.128,3.87,4.37
FAM185A,1,-0.407,0.104,3.62
FAM185A,2,1.51,13.6,7.78
FAM185A,3,0.135,3.92,4.44
